pEC50: −log10 of the molar value. The structures given here were assigned with low confidence; some may be wrong.
Target: CXCR7 (Homo sapiens, UniProt P25106)
Experiment: PathHunter CHO-K1 CXCR7 b-arrestin recruitment assay (CXCR7 agonistic activity)
Conditions: read-out: CXCR7 EC50, PathHunter CHO-K1 CXCR7 b-arrestin cell line
Method: The CXCl12 receptor and CXCR7 agonistic activities of the compounds of formula (I) are determined in accordance with the following experimental method.
The assay is using the PathHunter™ CHO-K1 CXCR7 b-arrestin cell line from DiscoverX. The system is based on the Enzyme Fragment Complementation Technology. Two complementing fragments of the b-galactosidase enzyme are expressed within stably transfected cells. The larger portion of b-gal, termed EA for Enzyme Acceptor, is fused to the C-terminus of b-arrestin 2. The smaller fragment, termed ProLink™ tag, is fused to CXCR7 at the C-terminus. Upon activation, b-arrestin is recruited which forces the interaction of ProLink and EA, allowing complementation of the two fragments of b-gal and the formation of a functional enzyme which is capable of hydrolysing the substrate and generating a chemiluminescent signal.
CHO-K1 CXCR7 b-arrestin cells are detached from culture dishes with a cell dissociation buffer (Invitrogen, #13151-014) and collected in growing medium (F12 HAMS 90% (v/v)/FCS 10% (v/v), Penicillin/streptomycin 1% (v/v)). 5000 cells per well (in 20 μl) are seeded in a 384 well plate (white-walled, clear bottom; BD Falcon #353274). […] Luminescent signal is read in a microplate reader (FLUOstar Optima, bmg). The calculated EC50 values may fluctuate depending on the daily cellular assay performance. […]

Sequences of proteins named here, by UniProt entry; tags and fusion partners are left off.
UniProt P25106, whole entry: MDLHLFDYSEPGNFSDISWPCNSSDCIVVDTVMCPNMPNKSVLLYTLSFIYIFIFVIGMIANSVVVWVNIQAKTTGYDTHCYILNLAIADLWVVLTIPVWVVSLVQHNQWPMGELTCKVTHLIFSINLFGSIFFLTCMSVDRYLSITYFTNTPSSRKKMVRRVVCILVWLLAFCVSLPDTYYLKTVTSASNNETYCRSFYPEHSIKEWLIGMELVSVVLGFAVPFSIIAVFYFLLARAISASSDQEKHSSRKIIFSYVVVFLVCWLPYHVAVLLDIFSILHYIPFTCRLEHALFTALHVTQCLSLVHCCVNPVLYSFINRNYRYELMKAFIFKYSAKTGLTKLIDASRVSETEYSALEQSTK
UniProt P32121, whole entry partner: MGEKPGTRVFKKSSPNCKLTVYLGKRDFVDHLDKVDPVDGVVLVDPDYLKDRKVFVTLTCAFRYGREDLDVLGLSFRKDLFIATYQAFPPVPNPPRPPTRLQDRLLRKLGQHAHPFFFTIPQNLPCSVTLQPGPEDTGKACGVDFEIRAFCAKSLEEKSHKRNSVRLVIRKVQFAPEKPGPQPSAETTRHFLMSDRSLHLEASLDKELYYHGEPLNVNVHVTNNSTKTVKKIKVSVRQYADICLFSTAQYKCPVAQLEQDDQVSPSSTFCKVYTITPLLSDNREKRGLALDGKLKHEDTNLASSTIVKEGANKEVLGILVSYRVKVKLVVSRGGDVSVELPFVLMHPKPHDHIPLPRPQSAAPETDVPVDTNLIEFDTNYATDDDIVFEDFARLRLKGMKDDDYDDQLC

SMILES	pEC50
CN(CCN(Cc1ccccc1C(F)(F)F)C(=O)CNc1cccc2c1CN(CC1CC1)CC2)C1CC1	7.82
CN(C)CCN(Cc1ccccc1C(F)(F)F)C(=O)CNc1cccc2c1CN(CC1CC1)CC2 [compound 475]	8.30
